Earlier results, collected in US20070292421A1, “Method for treating preeclampsia” (priority 2005, published 2007).
For at least one compound, name, drawing or mass did not settle the structure.

Legend:
deep venous thrombosis = conditions: compared with enoxaparin/warfarin
[1] = system: women with HELLP syndrome

SMILES	efficacy in the treatment of deep venous thrombosis (deep venous thrombosis)	mean birthweight ([1]; in vivo)	platelet count increase over 48 hours ([1]; secondary maternal outcome)	mean number of hospital stay days, mean interval (hours) to delivery ([1]; secondary maternal outcomes)	oliguria, mean arterial pressure, mean increase in platelet count, mean increase in urinary output and liver enzyme elevations ([1]; women randomized to dexamethasone)
CCOC(=O)CN[C@@H](C(=O)N1CC[C@H]1C(=O)NCc1ccc(/C(N)=N\O)cc1)C1CCCCC1 [Ximelagatran, ximelagatran]	as effective as enoxaparin/warfarin				
C[C@@H]1C[C@H]2[C@@H]3CCC4=CC(=O)C=C[C@]4(C)[C@@]3(F)[C@@H](O)C[C@]2(C)[C@@]1(O)C(=O)CO [dexamethasone]		significantly greater	tendency to a greater platelet count increase	statistically significantly less	fared significantly better
